Earlier results as cited in patent publication US20240268433A1, “Nutritional Compositions for Preserving Muscle Mass” (Dutch Medical Food B.V., priority 2021, published 2024).
For at least one compound, name, drawing or mass did not settle the structure.

System: healthy adults
Details: 84 healthy adults, supplementation

SMILES | effects on sleep
CC/C=C\C/C=C\C/C=C\C/C=C\C/C=C\CCCC(=O)O [EPA, eicosapentaenoic acid] | positive effects on sleep
CC/C=C\C/C=C\C/C=C\C/C=C\C/C=C\C/C=C\CCC(=O)O [DHA, docosahexaenoic acid] | positive effects on sleep
